# From the supplement of paper PMC3682954
# Several values for one entry are separate records, joined by “and”; a condition that tells them apart may be missing. Equal entries are not always repeated. Structures can show the parent of a compound that is named as a salt. ± gives the standard deviation of the averaged measurements. Some of the results follow. Most values come without repeats; read them as rough.
# Test system: RAW 264.7
# Test: HMGB1-induced TNF-alpha production relative to HMGB1-stimulated control; higher = more TNF-alpha secretion (less inhibition)
# Conditions: stimulus: HMGB1 5 ug/ml, 18 h
# [1] = compound concentration: 1 ug/ml
smiles,measurement,setting,value
CC[n+]1c(-c2ccccc2)c2cc(N)ccc2c2ccc(N)cc21,HMGB1-induced TNF-alpha production,compound concentration: 3 uM,69.2%
Cc1ccsc1C(=CCCN1CCC[C@@H](C(=O)O)C1)c1sccc1C,HMGB1-induced TNF-alpha production,compound concentration: 3 uM,121%
CNCCCN1c2ccccc2CCc2ccccc21 [Desipramine hydrochloride],HMGB1-induced TNF-alpha production,compound concentration: 3 uM,69.1 ± 1.1%
CNCCCN1c2ccccc2CCc2ccccc21,HMGB1-induced TNF-alpha production,compound concentration: 3 uM,69.8%
O=C(O)CCNC(=O)c1ccc(/N=N/c2ccc(O)c(C(=O)O)c2)cc1,HMGB1-induced TNF-alpha production,compound concentration: 3 uM,89.4%
O=C(O)CCNC(=O)c1ccc(/N=N/c2ccc(O)c(C(=O)O)c2)cc1 [Balsalazide Sodium],HMGB1-induced TNF-alpha production,compound concentration: 3 uM,105%
C[n+]1ccccc1/C=N/O,HMGB1-induced TNF-alpha production,compound concentration: 3 uM,84.8%
C[n+]1ccccc1/C=N/O [Pralidoxime chloride],HMGB1-induced TNF-alpha production,compound concentration: 3 uM,105%
CCOc1cc(N)c(Cl)cc1C(=O)NCC1CN(Cc2ccc(F)cc2)CCO1 (stereo not given),HMGB1-induced TNF-alpha production,compound concentration: 3 uM,94.9%
CCC(C)n1ncn(-c2ccc(N3CCN(c4ccc(OCC5COC(Cn6cncn6)(c6ccc(Cl)cc6Cl)O5)cc4)CC3)cc2)c1=O (stereo not given),HMGB1-induced TNF-alpha production,compound concentration: 3 uM,111 ± 46%
CCC(C)n1ncn(-c2ccc(N3CCN(c4ccc(OCC5COC(Cn6cncn6)(c6ccc(Cl)cc6Cl)O5)cc4)CC3)cc2)c1=O (stereo not given) [Itraconazole],HMGB1-induced TNF-alpha production,compound concentration: 3 uM,115 ± 43%
Cc1cccc(Nc2ccccc2C(=O)O)c1C [Mefenamic acid],HMGB1-induced TNF-alpha production,compound concentration: 3 uM,86.1 ± 17%
Cc1cccc(Nc2ccccc2C(=O)O)c1C,HMGB1-induced TNF-alpha production,compound concentration: 3 uM,102%
CC(N)C(=O)OC(C)(C)Cc1ccc(Cl)cc1 (stereo not given) [Alaproclate hydrochloride],HMGB1-induced TNF-alpha production,compound concentration: 3 uM,91.4%
CC(N)C(=O)OC(C)(C)Cc1ccc(Cl)cc1 (stereo not given),HMGB1-induced TNF-alpha production,compound concentration: 3 uM,86.4%
C[C@H]1[C@H](OC(=O)CCC(=O)O)O[C@@H]2O[C@@]3(C)CC[C@H]4[C@H](C)CC[C@@H]1[C@@]24OO3,HMGB1-induced TNF-alpha production,compound concentration: 3 uM,121%
C[C@H]1[C@H](OC(=O)CCC(=O)O)O[C@@H]2O[C@@]3(C)CC[C@H]4[C@H](C)CC[C@@H]1[C@@]24OO3 [Artesunate],HMGB1-induced TNF-alpha production,compound concentration: 3 uM,110%
COC(=O)C1=C(C)NC(C)=C(C(=O)OCCN(C)Cc2ccccc2)C1c1cccc([N+](=O)[O-])c1 (stereo not given) [Nicardipine hydrochloride],HMGB1-induced TNF-alpha production,compound concentration: 3 uM,87.1 ± 36%
COC(=O)C1=C(C)NC(C)=C(C(=O)OCCN(C)Cc2ccccc2)C1c1cccc([N+](=O)[O-])c1 (stereo not given),HMGB1-induced TNF-alpha production,compound concentration: 3 uM,87.6%
COC(=O)C1=C(C)NC(C)=C(C(=O)OCCN(C)Cc2ccccc2)C1c1cccc([N+](=O)[O-])c1 (stereo not given) [Nicardipine],HMGB1-induced TNF-alpha production,compound concentration: 3 uM,83.7%
CC(=O)N[C@H](Cc1ccc2ccccc2c1)C(=O)O [(R)-N-Acetyl-2-naphthylalanine],HMGB1-induced TNF-alpha production,[1],77.3%
"COc1cccc(-c2oc3cc(OC)ccc3c(=O)c2O)c1 [3',7-Dimethoxy-3-hydroxyflavone]",HMGB1-induced TNF-alpha production,[1],85%
CN1CCN(c2c(F)cc3c(=O)c(C(=O)O)cn4c3c2SCC4)CC1,HMGB1-induced TNF-alpha production,compound concentration: 3 uM,101%
CN1CCN(c2c(F)cc3c(=O)c(C(=O)O)cn4c3c2SCC4)CC1 [Rufloxacin],HMGB1-induced TNF-alpha production,compound concentration: 3 uM,85.4 ± 25%
COC(=O)C1=C(C)NC(C)=C(C(=O)OCC(C)C)C1c1ccccc1[N+](=O)[O-] (stereo not given),HMGB1-induced TNF-alpha production,compound concentration: 3 uM,73.8 ± 26%
COC(=O)C1=C(C)NC(C)=C(C(=O)OCC(C)C)C1c1ccccc1[N+](=O)[O-] (stereo not given) [Nisoldipine],HMGB1-induced TNF-alpha production,compound concentration: 3 uM,90.3 ± 8.7%
"O=c1cc(-c2ccc(O)cc2)oc2cc(O)ccc12 [4',7-Dihydroxyflavone]",HMGB1-induced TNF-alpha production,[1],79.7%
O=C1CCc2ccc(OCCCCN3CCN(c4cccc(Cl)c4Cl)CC3)cc2N1,HMGB1-induced TNF-alpha production,compound concentration: 3 uM,86.2 ± 21%
O=C1CCc2ccc(OCCCCN3CCN(c4cccc(Cl)c4Cl)CC3)cc2N1 [Aripiprazole],HMGB1-induced TNF-alpha production,compound concentration: 3 uM,103 ± 6.3%
CN(C)CCOC(c1ccc(Cl)cc1)c1ccccn1 (stereo not given) [Carbinoxamine maleate salt],HMGB1-induced TNF-alpha production,compound concentration: 3 uM,111%
CN(C)CCOC(c1ccc(Cl)cc1)c1ccccn1 (stereo not given),HMGB1-induced TNF-alpha production,compound concentration: 3 uM,100%
NC(=O)NC1NC(=O)NC1=O (stereo not given),HMGB1-induced TNF-alpha production,compound concentration: 3 uM,94.1%
NC(=O)NC1NC(=O)NC1=O (stereo not given) [Allantoin],HMGB1-induced TNF-alpha production,compound concentration: 3 uM,95.9%
CCCCCCCCCCCC1=C(O)C(=O)C=C(O)C1=O [Embelin],HMGB1-induced TNF-alpha production,[1],77.2%
"COc1c2ccoc2cc2oc(=O)ccc12 [Bergapten; 5-Methoxypsoralen, 99%]",HMGB1-induced TNF-alpha production,[1],65.8%
COc1c2ccoc2cc2oc(=O)ccc12,HMGB1-induced TNF-alpha production,compound concentration: 3 uM,72.1%
"COc1ccc(-c2cc(=O)c3c(OC)cccc3o2)cc1 [4',5-Dimethoxyflavone]",HMGB1-induced TNF-alpha production,[1],95.3%
Cc1cc2c(C(C)C)c(O)c(O)c(/C=N/Nc3nc4ccccc4[nH]c3=O)c2c(O)c1-c1c(C)cc2c(C(C)C)c(O)c(O)c(/C=N/Nc3nc4ccccc4[nH]c3=O)c2c1O,HMGB1-induced TNF-alpha production,[1],61.4%
"CC(C)NCC(O)c1ccc(O)c(O)c1 (single isomer, unassigned; (-)) [(-)-Isoproterenol hydrochloride]",HMGB1-induced TNF-alpha production,compound concentration: 3 uM,82.5 ± 28%
O=C1C(O)=C([C@H]2CC[C@H](c3ccc(Cl)cc3)CC2)C(=O)c2ccccc21 [Atovaquone],HMGB1-induced TNF-alpha production,compound concentration: 3 uM,98 ± 40%
O=C1C(O)=C([C@H]2CC[C@H](c3ccc(Cl)cc3)CC2)C(=O)c2ccccc21,HMGB1-induced TNF-alpha production,compound concentration: 3 uM,85.6 ± 17%
NCCNS(=O)(=O)c1cccc2c(Cl)cccc12 [A3 hydrochloride],HMGB1-induced TNF-alpha production,compound concentration: 3 uM,86%
Cc1ccccc1C(OCCN(C)C)c1ccccc1 (stereo not given),HMGB1-induced TNF-alpha production,compound concentration: 3 uM,85.1%
Cc1ccccc1C(OCCN(C)C)c1ccccc1 (stereo not given) [Orphenadrine hydrochloride],HMGB1-induced TNF-alpha production,compound concentration: 3 uM,94.7 ± 20%
CN1CCOC(c2ccccc2)c2ccccc2C1 (stereo not given),HMGB1-induced TNF-alpha production,compound concentration: 3 uM,86.7%
CN1CCOC(c2ccccc2)c2ccccc2C1 (stereo not given) [Nefopam hydrochloride],HMGB1-induced TNF-alpha production,compound concentration: 3 uM,71.5%
N=C(N)NCCCCN [Agmatine sulfate],HMGB1-induced TNF-alpha production,compound concentration: 3 uM,92%
CN1CCC(=C2c3ccccc3CCc3sccc32)CC1 [Pizotyline],HMGB1-induced TNF-alpha production,compound concentration: 3 uM,94.4%
CN1CCC(=C2c3ccccc3CCc3sccc32)CC1,HMGB1-induced TNF-alpha production,compound concentration: 3 uM,91.5%
CN1CCC(=C2c3ccccc3CCc3sccc32)CC1 [Pizotifen malate],HMGB1-induced TNF-alpha production,compound concentration: 3 uM,92.6%
"CCN(CC)CCOc1ccc(C(=C(Cl)c2ccccc2)c2ccccc2)cc1 [Clomiphene citrate (Z,E)]",HMGB1-induced TNF-alpha production,compound concentration: 3 uM,64%
CCN(CC)CCOc1ccc(C(=C(Cl)c2ccccc2)c2ccccc2)cc1,HMGB1-induced TNF-alpha production,compound concentration: 3 uM,70.5%
CCN(CC)CCOc1ccc(C(=C(Cl)c2ccccc2)c2ccccc2)cc1 [Clomiphene],HMGB1-induced TNF-alpha production,compound concentration: 3 uM,93.6%
COc1ccc(NC(=O)c2ccc(-c3ccc(-c4noc(C)n4)cc3C)cc2)cc1N1CCN(C)CC1,HMGB1-induced TNF-alpha production,compound concentration: 3 uM,87.4%
CN(C)[C@@H]1C(O)=C(C(=O)NCNCCCC[C@H](N)C(=O)O)C(=O)[C@@]2(O)C(O)=C3C(=O)c4c(O)cccc4[C@@](C)(O)[C@H]3C[C@@H]12 [Lymecycline],HMGB1-induced TNF-alpha production,compound concentration: 3 uM,84.7%
CCCCNc1ccc(C(=O)OCCN(C)C)cc1 [Tetracaine hydrochloride],HMGB1-induced TNF-alpha production,compound concentration: 3 uM,102%
COc1ccc2c(c1)CC[C@@H]1[C@@H]2CC[C@]2(C)[C@@H](NCCCCCCN3C(=O)CCC3=O)CC[C@@H]12,HMGB1-induced TNF-alpha production,compound concentration: 3 uM,125%
COc1ccccc1N1CCN(CCCCNC(=O)c2ccc3ccccc3c2)CC1,HMGB1-induced TNF-alpha production,compound concentration: 3 uM,55.3% and 76%
CCC1NC(=O)c2cc(S(N)(=O)=O)c(Cl)cc2N1 (stereo not given) [Quinethazone],HMGB1-induced TNF-alpha production,compound concentration: 3 uM,117%
CC(O)(P(=O)(O)O)P(=O)(O)O,HMGB1-induced TNF-alpha production,compound concentration: 3 uM,84.9%
"CC(O)(P(=O)(O)O)P(=O)(O)O [Etidronic acid, disodium salt]",HMGB1-induced TNF-alpha production,compound concentration: 3 uM,105%
CC(O)(P(=O)(O)O)P(=O)(O)O [Etidronate],HMGB1-induced TNF-alpha production,compound concentration: 3 uM,99.3%
CC(COc1ccccc1Cc1ccccc1)N1CCCCC1 (stereo not given),HMGB1-induced TNF-alpha production,compound concentration: 3 uM,93.6%
Cc1cnc(C(=O)NCCc2ccc(S(=O)(=O)NC(=O)NC3CCCCC3)cc2)cn1,HMGB1-induced TNF-alpha production,compound concentration: 3 uM,79.7%
Cc1cnc(C(=O)NCCc2ccc(S(=O)(=O)NC(=O)NC3CCCCC3)cc2)cn1 [Glipizide],HMGB1-induced TNF-alpha production,compound concentration: 3 uM,94.2 ± 10%
O=C(O)COCCN1CCN([C@H](c2ccccc2)c2ccc(Cl)cc2)CC1,HMGB1-induced TNF-alpha production,compound concentration: 3 uM,115%
CC(C)NC[C@H](O)COc1cccc2[nH]ccc12 [S(-)-Pindolol],HMGB1-induced TNF-alpha production,compound concentration: 3 uM,86.9%
O=S(=O)(O)c1cc(I)c(O)c2ncccc12,HMGB1-induced TNF-alpha production,compound concentration: 3 uM,88.7%
O=C1[C@H](CC[C@H](O)c2ccc(F)cc2)[C@@H](c2ccc(O)cc2)N1c1ccc(F)cc1,HMGB1-induced TNF-alpha production,compound concentration: 3 uM,105 ± 4.3%
COc1ccc(C(=O)c2ccccc2O)c(O)c1,HMGB1-induced TNF-alpha production,compound concentration: 3 uM,68.1%
COc1ccc(C(=O)c2ccccc2O)c(O)c1 [Dioxybenzone],HMGB1-induced TNF-alpha production,compound concentration: 3 uM,109%
CC(C)(C)NC[C@H](O)COc1ccccc1C1CCCC1 [Penbutolol sulfate],HMGB1-induced TNF-alpha production,compound concentration: 3 uM,111%
COCCc1ccc(OCC(O)CNC(C)C)cc1 (stereo not given) [Metoprolol],HMGB1-induced TNF-alpha production,compound concentration: 3 uM,75.3%
COCCc1ccc(OCC(O)CNC(C)C)cc1 (stereo not given),HMGB1-induced TNF-alpha production,compound concentration: 3 uM,84.8%
COc1ccc(CN2CCN(C(c3ccc(F)cc3)c3ccc(F)cc3)CC2)c(OC)c1OC [Lomerizine],HMGB1-induced TNF-alpha production,compound concentration: 3 uM,59.2%
COc1ccc(CN2CCN(C(c3ccc(F)cc3)c3ccc(F)cc3)CC2)c(OC)c1OC,HMGB1-induced TNF-alpha production,compound concentration: 3 uM,94.1%
COc1cc2c(cc1OC)C(=O)N(C)CC2 [N-methylcorydaldine],HMGB1-induced TNF-alpha production,[1],75.5%
CC(C)Cc1ccc(C(C)C(=O)O)cc1 (stereo not given) [Ibuprofen],HMGB1-induced TNF-alpha production,compound concentration: 3 uM,129%
CC(C)Cc1ccc(C(C)C(=O)O)cc1 (stereo not given),HMGB1-induced TNF-alpha production,compound concentration: 3 uM,97.8%
COC1=CC(=O)C=C(OC)C1=O,HMGB1-induced TNF-alpha production,compound concentration: 3 uM,37.8%
COC(=O)C(N)Cc1ccc(Cl)cc1 (racemic) [DL-p-Chlorophenylalanine methyl ester hydrochloride],HMGB1-induced TNF-alpha production,compound concentration: 3 uM,95%
Cc1cnc(C(=O)O)c[n+]1[O-] [Acipimox],HMGB1-induced TNF-alpha production,compound concentration: 3 uM,98.9 ± 20%
CC(=O)Nc1cccc(O)c1,HMGB1-induced TNF-alpha production,compound concentration: 3 uM,70.2%
O=c1c(O)c(-c2ccc(O)c(O)c2)oc2cc(O)cc(O)c12 [Quercetin dihydrate],HMGB1-induced TNF-alpha production,compound concentration: 3 uM,90.7%
O=C(O)C1(C(=O)O)CCC1.[NH2-].[NH2-].[Pt+2],HMGB1-induced TNF-alpha production,compound concentration: 3 uM,90.4 ± 13%
O=C(O)C1(C(=O)O)CCC1.[NH2-].[NH2-].[Pt+2] [Carboplatin],HMGB1-induced TNF-alpha production,compound concentration: 3 uM,95.1 ± 1.8%
O=C(O)[C@H]1/C(=C/CO)O[C@@H]2CC(=O)N21 [Potassium clavulanate],HMGB1-induced TNF-alpha production,compound concentration: 3 uM,109%
O=C(OCCOCCO)c1ccccc1Nc1cccc(C(F)(F)F)c1 [Etofenamate],HMGB1-induced TNF-alpha production,compound concentration: 3 uM,102%
CC1=C(C/C=C(\C)CCC[C@H](C)CCC[C@H](C)CCCC(C)C)C(=O)c2ccccc2C1=O,HMGB1-induced TNF-alpha production,compound concentration: 3 uM,80.8%
CC1=C(C/C=C(\C)CCC[C@H](C)CCC[C@H](C)CCCC(C)C)C(=O)c2ccccc2C1=O [Phylloquinone; phytonadione; Vitamin K_1],HMGB1-induced TNF-alpha production,[1],72.4%
